# Measurements from US5387671A, “Hexa- and heptapeptide anaphylatoxin-receptor ligands” (Abbott Laboratories, priority 1990, dated 1995).
# At least one structure is not confirmed: it was looked up by name or label, or the drawing left a doubt. Square brackets hold non-standard residues; d marks the D form. Peptide text beside a SMILES is read from it. dThz(5,5-Me2) = CC1(C)SCN[C@H]1C(=O)O; Cha = N[C@@H](CC1CCCCC1)C(=O)O; dCha = N[C@H](CC1CCCCC1)C(=O)O
# Target: T1, C5a Receptor (Homo sapiens, UniProt P21730)
# T1 construct: 2.5-25 ug/mL of purified PMNL membrane fragments; endogenous in cells; host or cells: PMNL (polymorphonuclear leukocytes), purified membrane fragments
# T1 sequence (P21730 1-350): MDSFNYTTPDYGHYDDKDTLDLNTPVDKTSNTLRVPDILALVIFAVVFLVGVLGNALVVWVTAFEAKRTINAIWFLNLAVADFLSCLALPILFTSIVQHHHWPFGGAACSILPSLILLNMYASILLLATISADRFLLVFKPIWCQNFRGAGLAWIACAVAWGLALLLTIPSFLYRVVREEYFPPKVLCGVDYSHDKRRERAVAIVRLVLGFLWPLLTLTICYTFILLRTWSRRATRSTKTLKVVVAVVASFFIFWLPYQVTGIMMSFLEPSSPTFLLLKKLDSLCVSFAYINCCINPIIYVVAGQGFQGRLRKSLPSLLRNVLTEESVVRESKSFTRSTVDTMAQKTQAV
# Experiment: Anaphylatoxin Receptor Binding Ki Determination (inhibition of 125I-C5a binding to PMNL membrane fragments)
# Conditions: 0.03-1 nM 125I-C5a; 2.5-25 ug/mL purified PMNL membrane fragments; filtration; read-out: In vitro C5a Receptor Binding Potency Ki
# Text: Free and membrane-bound ligand were separated by filtration.
compound,measurement,value
"CC1(C)SCN(C(=O)[C@H](CCCCN)NC(=O)[C@@H](N)Cc2ccccc2)[C@H]1C(=O)N[C@H](CC1CCCCC1)C(=O)N[C@@H](CC1CCCCC1)C(=O)N[C@H](CCCNC(=N)N)C(=O)O [Example 44, H-Phenylalanyl-Lysyl-{(2S)-3,3-Dimethyl-thiazolidine-2-carbonyl}-{(2R)-2-Amino-3-cyclohexylpropanoyl}-{(2S)-2-Amino-3-cyclohexylpropanoyl}-DArginyl-OH] (H-FK[dThz(5,5-Me2)][dCha][Cha][dR]-OH)",Ki,30 µM
